{
  "sequences": {"note": "Chains of the proteins cited; added tags and fusions are not shown. Lines headed by an entry give the natural chain unless they say otherwise; changes in a name come on top.", "UniProt P56817": "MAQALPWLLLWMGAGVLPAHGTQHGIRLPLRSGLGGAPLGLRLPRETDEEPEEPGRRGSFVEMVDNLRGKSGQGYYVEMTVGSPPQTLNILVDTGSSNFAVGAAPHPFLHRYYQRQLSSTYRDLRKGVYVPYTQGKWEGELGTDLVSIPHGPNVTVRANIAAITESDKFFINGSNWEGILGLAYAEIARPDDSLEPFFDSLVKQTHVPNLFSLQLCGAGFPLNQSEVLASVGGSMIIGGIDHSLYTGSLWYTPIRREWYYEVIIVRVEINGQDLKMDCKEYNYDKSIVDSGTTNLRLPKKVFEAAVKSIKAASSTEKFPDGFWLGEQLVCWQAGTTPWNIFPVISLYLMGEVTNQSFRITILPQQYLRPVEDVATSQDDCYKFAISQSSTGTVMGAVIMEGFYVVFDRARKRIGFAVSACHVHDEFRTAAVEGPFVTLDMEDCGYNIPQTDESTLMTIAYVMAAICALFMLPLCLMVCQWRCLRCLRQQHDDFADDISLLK", "UniProt P31751": "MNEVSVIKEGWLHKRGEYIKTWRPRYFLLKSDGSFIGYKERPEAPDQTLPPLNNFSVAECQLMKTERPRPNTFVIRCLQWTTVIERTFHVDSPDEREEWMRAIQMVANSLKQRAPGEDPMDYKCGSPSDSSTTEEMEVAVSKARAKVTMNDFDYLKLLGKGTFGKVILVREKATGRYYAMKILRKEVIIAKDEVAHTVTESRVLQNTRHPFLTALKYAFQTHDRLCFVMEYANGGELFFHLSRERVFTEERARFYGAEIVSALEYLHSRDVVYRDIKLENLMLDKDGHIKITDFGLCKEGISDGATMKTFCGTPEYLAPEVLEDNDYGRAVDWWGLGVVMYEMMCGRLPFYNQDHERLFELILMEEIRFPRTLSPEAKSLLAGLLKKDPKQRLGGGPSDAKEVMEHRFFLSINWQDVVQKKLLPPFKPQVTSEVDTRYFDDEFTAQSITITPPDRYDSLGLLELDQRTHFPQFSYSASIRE", "UniProt P49662": "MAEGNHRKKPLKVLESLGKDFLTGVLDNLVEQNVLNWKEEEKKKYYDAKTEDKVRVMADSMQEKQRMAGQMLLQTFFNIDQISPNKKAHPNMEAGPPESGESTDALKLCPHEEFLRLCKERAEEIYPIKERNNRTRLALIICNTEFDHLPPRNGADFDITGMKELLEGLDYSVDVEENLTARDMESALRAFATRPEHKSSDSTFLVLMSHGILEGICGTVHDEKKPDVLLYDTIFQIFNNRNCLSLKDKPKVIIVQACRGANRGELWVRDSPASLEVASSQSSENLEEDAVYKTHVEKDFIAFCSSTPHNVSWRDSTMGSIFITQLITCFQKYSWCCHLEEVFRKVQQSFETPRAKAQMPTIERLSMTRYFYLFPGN"},
  "source": "PubChem BioAssay (EPA / NIEHS)",
  "note": "This list was built around the results that the source calls inconclusive (neither active nor inactive); the mix of calls is not that of the screen. A potency beside an inconclusive call is a rough fit, not a confirmed value. Active and inactive are the calls of the source. The calls were made as follows: active = hit-call score of the fitted dose curve at least 0.9, where 1 is the maximum; inconclusive = response in the unintended direction; inactive = score below 0.9.",
  "data": [
    {"biological_target": "human Beta-secretase (BACE), BACE1 (gene 23621) (UniProt P56817)", "test": "NVS_ENZ_hBACE: NovaScreen (NVS) Enzymatic Assay for human Beta-secretase (BACE) (AID 2283140);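 also: hits are inhibitors that reduce fluorescent substrate signal versus DMSO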", "summary_of_the_method": "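Compounds were first tested in duplicate at 25 uM, then actives in concentration series, against recombinant BACE1 from SF9 cells. Enzyme activity was measured by fluorescence intensity 1 hour after dosing, with DMSO as negative control.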", "values": [
      {"smiles": "CCCCC(CC)CO", "note": "(stereo not given)", "AC50": "inconclusive: 1.85 µM"},
      {"smiles": "CCCCN1C(=O)[C@@H]([C@H](O)C2CCCCC2)NC(=O)C12CCN(Cc1ccc(Oc3ccc(C(=O)O)cc3)cc1)CC2", "outcome": "inactive"},
      {"smiles": "COC(=O)c1ccc(C=O)cc1", "AC50": "inconclusive: 23.8 µM"},
      {"smiles": "C=C(C#N)C(=O)OCC", "AC50": "inconclusive: 26.6 µM"},
      {"smiles": "Nc1ccccc1N", "outcome": "inactive"},
      {"smiles": "CC(C)CO", "AC50": "inconclusive: 25 µM"},
      {"smiles": "CS(=O)(=O)c1ccc([C@@H](CC2CCCC2)C(=O)Nc2cnccn2)cc1Cl", "AC50": "inconclusive: 25 µM"},
      {"smiles": "C#CCOC(=O)[C@@H](C)Oc1ccc(Oc2ncc(Cl)cc2F)cc1", "AC50": "inconclusive: 42.2 µM"},
      {"smiles": "NC(=O)NC(N)=O", "AC50": "inconclusive: 25 µM"},
      {"smiles": "Cc1ccc2ccccc2n1", "AC50": "inconclusive: 14.2 µM"},
      {"smiles": "CNCc1ccc(NC(=O)c2c[nH]c3c2C(=O)CCC3)cc1", "outcome": "inactive"},
      {"smiles": "CC(C)(C)c1ccc(O)c(C(C)(C)C)c1", "outcome": "inactive"}
    ]},
    {"biological_target": "human AKT serine/threonine Kinase 2 (AKT2), AKT2 (gene 208) (UniProt P31751)", "test": "NVS_ENZ_hAKT2: NovaScreen (NVS) Enzymatic Assay for human AKT serine/threonine Kinase 2 (AKT2) (AID 2283141)", "summary_of_the_method": "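Cell-free fluorescence/electrophoretic mobility shift readout of recombinant human AKT2 activity, 1 h after chemical dosing. Duplicate primary screen at 25 uM, then singleton concentration-response up to 50 uM; loss of signal versus DMSO baseline.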", "values": [
      {"smiles": "CC(C)CC(C)(O)C#CC(C)(O)CC(C)C", "note": "(stereo not given)", "AC50": "inconclusive: 25 µM"},
      {"smiles": "CC(=O)C(C)=CC1C(C)=CCCC1(C)C", "note": "(stereo not given)", "AC50": "inconclusive: 25 µM"},
      {"smiles": "O=C1c2c(O)cccc2Cc2cccc(O)c21", "AC50": "active: 16 µM"},
      {"smiles": "Cc1ccc2ncccc2c1", "outcome": "inactive"}
    ]},
    {"biological_target": "human Caspase 4 (CASP4), CASP4 (gene 837) (UniProt P49662)", "test": "NVS_ENZ_hCASP4: NovaScreen (NVS) Enzymatic Assay for human Caspase 4 (CASP4) (AID 2283143)", "summary_of_the_method": "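The cell-free assay used E. coli-expressed enzyme with a fluorogenic substrate, read 2 h after dosing. Signal loss was scored versus DMSO. Screening was in duplicate at 25 uM, then singleton concentration-response up to 50 uM.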", "values": [
      {"smiles": "CCCCN1C(=O)[C@@H]([C@H](O)C2CCCCC2)NC(=O)C12CCN(Cc1ccc(Oc3ccc(C(=O)O)cc3)cc1)CC2", "AC50": "inconclusive: 45.2 µM"},
      {"smiles": "COc1cc(-c2nc(NC(=O)c3cc4cc(C)cc(C)c4n3CC(=O)O)sc2CCC2CCCCC2)c(OC)cc1Cl", "AC50": "active: 14.3 µM"},
      {"smiles": "O=C(OC[C@H]1O[C@@H](OC(=O)c2cc(O)c(O)c(OC(=O)c3cc(O)c(O)c(O)c3)c2)[C@H](OC(=O)c2cc(O)c(O)c(OC(=O)c3cc(O)c(O)c(O)c3)c2)[C@@H](OC(=O)c2cc(O)c(O)c(OC(=O)c3cc(O)c(O)c(O)c3)c2)[C@@H]1OC(=O)c1cc(O)c(O)c(OC(=O)c2cc(O)c(O)c(O)c2)c1)c1cc(O)c(O)c(OC(=O)c2cc(O)c(O)c(O)c2)c1", "AC50": "inconclusive: 8.47 µM"},
      {"smiles": "O=C1c2c(O)cccc2Cc2cccc(O)c21", "AC50": "active: 4.5 µM"},
      {"smiles": "CCOc1cccc(-n2cc(C(=O)N3CCN(c4cc(C(=O)O)c5ccccc5c4)CC3)nc2-c2ccc(C)cc2)c1", "outcome": "inactive"},
      {"smiles": "Clc1cc(Cl)c(Cl)cc1Cl", "AC50": "inconclusive: 25 µM"},
      {"smiles": "Cc1nc(-c2ccc3c(c2)CCN(CCC2CCC(NC(=O)/C=C/c4ccc(F)cc4)CC2)CC3)no1", "note": "(stereo not given)", "outcome": "inactive"},
      {"smiles": "COc1ccc2c(c1)c(CC(=O)O)c(C)n2C(=O)c1ccc(Cl)cc1", "AC50": "inconclusive: 0.64 µM"},
      {"smiles": "CCSC(=O)N(CC(C)C)CC(C)C", "AC50": "inconclusive: 25 µM"}
    ]}
  ]
}
